Results are given in words; binding and its absence hold for the method and conditions named. Binding seen in cells or lysates may run through a third protein. Some results given as binding are weak or reduced against the parent protein; the word gives no strength.
Tests used:
[1] = molecular target: T1, Cdk4 (mouse tumors) (mouse (endogenous in K14cre; p53wt/f; Brca1wt/f tumors)) (UniProt P30285); experiment: co-IP; K14cre; p53wt/f; Brca1wt/f mouse tumors, pulled down by anti-Pin1 or anti-Cdk4 antibody
T1 sequence: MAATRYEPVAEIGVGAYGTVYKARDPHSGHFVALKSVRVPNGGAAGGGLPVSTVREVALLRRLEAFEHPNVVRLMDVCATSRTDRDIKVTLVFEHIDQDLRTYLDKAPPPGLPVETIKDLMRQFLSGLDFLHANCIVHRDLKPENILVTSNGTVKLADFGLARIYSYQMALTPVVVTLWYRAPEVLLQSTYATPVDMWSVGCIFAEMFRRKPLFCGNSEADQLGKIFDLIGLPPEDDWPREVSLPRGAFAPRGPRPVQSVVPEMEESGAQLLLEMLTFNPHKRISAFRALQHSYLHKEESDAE

Protein sequences, listed by entry. Tags and fused reporters are not part of them.
UniProt Q9QUR7: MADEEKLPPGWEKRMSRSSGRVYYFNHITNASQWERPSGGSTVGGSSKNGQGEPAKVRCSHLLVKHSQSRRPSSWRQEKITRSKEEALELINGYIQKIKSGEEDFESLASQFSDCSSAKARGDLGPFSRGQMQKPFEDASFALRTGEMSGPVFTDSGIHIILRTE
UniProt Q9R1K5: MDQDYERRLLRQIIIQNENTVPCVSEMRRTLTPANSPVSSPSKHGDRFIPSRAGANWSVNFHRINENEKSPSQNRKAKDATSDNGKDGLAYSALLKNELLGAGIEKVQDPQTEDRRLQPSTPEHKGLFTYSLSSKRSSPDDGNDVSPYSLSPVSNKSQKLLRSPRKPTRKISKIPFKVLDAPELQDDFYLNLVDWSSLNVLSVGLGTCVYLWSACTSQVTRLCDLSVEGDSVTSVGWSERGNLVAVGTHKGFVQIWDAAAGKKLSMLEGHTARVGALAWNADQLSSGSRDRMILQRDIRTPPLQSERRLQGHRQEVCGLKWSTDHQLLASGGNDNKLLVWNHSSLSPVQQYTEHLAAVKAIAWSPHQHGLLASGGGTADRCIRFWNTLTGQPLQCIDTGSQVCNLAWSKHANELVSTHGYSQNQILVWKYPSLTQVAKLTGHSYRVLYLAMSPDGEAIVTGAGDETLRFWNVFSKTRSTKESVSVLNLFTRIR
UniProt Q9UM11: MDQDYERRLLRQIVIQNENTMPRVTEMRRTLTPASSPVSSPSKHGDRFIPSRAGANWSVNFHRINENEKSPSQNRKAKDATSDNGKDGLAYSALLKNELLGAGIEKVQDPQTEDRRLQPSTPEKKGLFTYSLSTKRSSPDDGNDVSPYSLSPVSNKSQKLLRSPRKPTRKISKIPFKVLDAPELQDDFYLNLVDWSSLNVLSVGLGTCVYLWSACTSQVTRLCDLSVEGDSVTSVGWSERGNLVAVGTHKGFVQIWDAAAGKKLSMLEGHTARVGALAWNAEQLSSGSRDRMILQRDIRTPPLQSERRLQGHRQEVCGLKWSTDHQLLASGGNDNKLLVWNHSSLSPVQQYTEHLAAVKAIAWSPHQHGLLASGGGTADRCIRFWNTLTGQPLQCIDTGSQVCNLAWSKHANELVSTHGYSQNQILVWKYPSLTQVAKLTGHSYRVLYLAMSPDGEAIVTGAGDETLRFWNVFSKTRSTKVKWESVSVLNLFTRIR

[2] = molecular target: Pin1 (mouse tumors) (mouse (endogenous in K14cre; p53wt/f; Brca1wt/f tumors)) (UniProt Q9QUR7); experiment: as above
[3] = molecular target: endogenous CDK4 (human (endogenous in MDA-MB-231 and MCF-7)) (UniProt P11802); experiment: co-IP; endogenous proteins; MDA-MB-231 and MCF-7 cells treated with 1 uM Palbociclib for 24 hrs, precipitated with IgG or anti-CDK4 antibodies

Row | binding [1] | binding [2] | binding [3] | Substance
1 | binds | binds | – | Cdh1 (mouse tumors) (from UniProt Q9R1K5 1-493)
2 | – | – | binds | endogenous CDH1 (from UniProt Q9UM11 1-496)
